In patent publication US20210214444A1 (TAYU HUAXIA BIOTECH MEDICAL GROUP, published 2021):
These are yes or no findings as the source states them, for the method shown. Some entries that bind do so weakly or less than the wild type.

The chains behind the UniProt entries cited, without tags or fusion partners. Where a name states a change or a piece, a line headed by the entry shows the natural chain unless it says otherwise.
UniProt Q9NZQ7: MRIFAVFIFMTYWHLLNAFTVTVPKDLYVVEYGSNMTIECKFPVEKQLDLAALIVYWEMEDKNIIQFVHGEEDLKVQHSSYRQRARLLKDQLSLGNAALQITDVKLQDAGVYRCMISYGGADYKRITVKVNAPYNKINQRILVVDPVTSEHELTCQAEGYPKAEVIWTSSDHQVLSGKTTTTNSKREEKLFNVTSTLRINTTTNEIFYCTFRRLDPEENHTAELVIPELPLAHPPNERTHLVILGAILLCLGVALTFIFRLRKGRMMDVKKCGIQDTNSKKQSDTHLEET

Key:
[1] = molecular target: human PD-L1 expressed on cells (human) (UniProt Q9NZQ7); experiment: FACS on CHO/PD-L1 stable cells, anti-HuFc-PE
[2] = molecular target: human PD-L1 expressed on cells (human) (UniProt Q9NZQ7); experiment: FACS stability test, 62.5/31/15.6 ng first antibody, 60 ng HuFc-PE; row marked Control
[3] = molecular target: human PD-L1 expressed on cells (human) (UniProt Q9NZQ7); experiment: FACS on CHO/PD-L1 stable cells, 1.9-62.5 ng first antibody, 60 ng anti-HuFc-PE
[4] = molecular target: human PD-L1 expressed on cells (human) (UniProt Q9NZQ7); experiment: FACS on hPD-L1; neither the text nor the sheet names the cells
[5] = molecular target: human PD-L1 expressed on cells (human) (UniProt Q9NZQ7); experiment: FACS, binding to hPD-L1 (cells not named)
[6] = molecular target: biotin-labeled hPD-L1-mouse Fc fusion protein (human) (UniProt Q9NZQ7); experiment: BLI, ForteBio Octet RED96; biotin hPD-L1-mouse Fc on SA sensors
[7] = molecular target: human PD-L1 expressed on cells (human) (UniProt Q9NZQ7); experiment: FACS stability test, 62.5/31/15.6 ng first antibody, 60 ng second antibody (label partly missing: '2nd Ab ... Fc-PE'); row marked Control
[8] = molecular target: human PD-L1 expressed on cells (human) (UniProt Q9NZQ7); experiment: FACS stability test, 62.5/31/15.6 ng first antibody, 60 ng HuFc-PE; row marked Control, storage temperature not given
[9] = molecular target: human PD-L1 expressed on cells (human) (UniProt Q9NZQ7); experiment: competitive radioligand binding on MC38-PD-L1 cells: unlabeled anti-PD-L1 IgG1 (20-160 nM according to the text) against 68Ga-NOTA-anti-PD-L1 scFv, gamma counting

binding [1]: binds
binding [2]: binds
binding [3]: binds
binding [4]: binds
binding [5]: binds
binding [6]: binds
binding [7]: binds
binding [8]: binds
binding [9]: binds
B1: humanized anti-hPD-L1 antibody variant 2 (antibody, V domains shown)
VH: QVQLVQSGAEVKKPGASVKVSCKASGFNIKDTYMYWVRQAPGQGLEWMGRIDPANDNTKYAQKFQGRVTITADTSTSTAYMELSSLRSEDTAVYYCARAKNLLNYFDYWGQGTLVTVSS
VL: DIQMTQSPSSLSASVGDRVTITCRASQEISGYLSWLQQKPGKAPKRLIYATSTLQSGVPSRFSGSRSGTDYTLTISSLQPEDFATYYCLQYAIYPLTFGQGTKLEIKR
notes: Human IgG1; also called Humanized VH 1 + Humanized VL2; anti-PD-L1 IgG1
